The target in test [1] is GSK3β, endogenous (human (endogenous in Malme3M^R, SNU387^R, Malme3M)) (UniProt P49841). The test can be described thus: co-IP; Malme3M cells transiently transfected with each CAGE construct (1 ug), lysates 48 h after transfection; antibody 2 ug/ml.
The target of test [2] is CAGE (cancer/testis antigen CAGE), endogenous (human (endogenous in Malme3M^R, SNU387^R)) (UniProt Q86TM3). Briefly: co-IP; endogenous proteins, lysates of Malme3M^R, SNU387^R or Malme3M^R-Taxol cells treated with the indicated peptide (10 uM) for 48 h; antibody 2 ug/ml.

Protein sequences, listed by entry. Tags and fused reporters are not part of them.
UniProt P49841: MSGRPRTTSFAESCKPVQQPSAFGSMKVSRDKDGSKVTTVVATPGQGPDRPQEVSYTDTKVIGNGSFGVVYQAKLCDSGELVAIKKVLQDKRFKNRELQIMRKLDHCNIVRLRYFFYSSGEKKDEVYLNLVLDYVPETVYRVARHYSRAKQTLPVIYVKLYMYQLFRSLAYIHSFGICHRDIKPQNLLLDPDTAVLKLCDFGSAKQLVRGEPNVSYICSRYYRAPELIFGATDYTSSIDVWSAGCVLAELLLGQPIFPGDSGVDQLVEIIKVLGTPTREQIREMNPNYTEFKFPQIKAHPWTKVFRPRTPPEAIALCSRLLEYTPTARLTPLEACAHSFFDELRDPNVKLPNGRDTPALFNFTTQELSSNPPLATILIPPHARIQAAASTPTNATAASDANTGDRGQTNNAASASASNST

Residue numbers refer to the chain shown, from its start. These are yes or no findings as the source states them, for the method shown. Binding seen in cells or lysates may run through a third protein. Some entries that bind do so weakly or less than the wild type.

B1: Full-length mutant CAGE (G-A-G-K-T) (protein, UniProt Q86TM3 1-631)
chain: MSHWAPEWKRAEANPRDLGASWDVRGSRGSGWSGPFGHQGPRAAGSREPPLCFKIKNNMVGVVIGYSGSKIKDLQHSTNTKIQIINGESEAKVRIFGNREMKAKAKAAIETLIRKQESYNSESSVDNAASQTPIGRNLGRNDIVGEAEPLSNWDRIRAAVVECEKRKWADLPPVKKNFYIESKATSCMSEMQVINWRKENFNITCDDLKSGEKRLIPKPTCRFKDAFQQYPDLLKSIIRVGIVKPTPIQSQAWPIILQGIDLIVVAQTGAGKTLSYLMPGFIHLDSQPISREQRNGPGMLVLTPTRELALHVEAECSKYSYKGLKSICIYGGRNRNGQIEDISKGVDIIIATPGRLNDLQMNNSVNLRSITYLVIDEADKMLDMEFEPQIRKILLDVRPDRQTVMTSATWPDTVRQLALSYLKDPMIVYVGNLNLVAVNTVKQNIIVTTEKEKRALTQEFVENMSPNDKVIMFVSQKHIADDLSSDFNIQGISAESLHGNSEQSDQERAVEDFKSGNIKILITTDIVSRGLDLNDVTHVYNYDFPRNIDVYVHRVGYIGRTGKTGTSVTLITQRDSKMAGELIKILDRANQSVPEDLVVMAEQYKLNQQKRHRETRSRKPGQRRKEFYFLS
As for B1, the binding result in test [1] is on record as “binds”.

B2: Full-length point mutant CAGE (G-T-G-K-A) (protein, UniProt Q86TM3 1-631)
chain: B1 chain with A270T, T273A
With B2, in test [1], the binding result was “no binding”.

B3: Full-length point mutant CAGE (G-T-G-A-T) (protein, UniProt Q86TM3 1-631)
chain: B1 chain with A270T, K272A
On to B3, for which, in test [1], the binding entry is “no binding”. Regarding GTGKT [GTGKT peptide], the binding result in test [2] is recorded as “binds”.

For the origin of these results see PMC5355126.
